No constants are given. Whether binding was seen depends on the method and setting. Some entries that bind do so weakly or less than the wild type.
Molecular target: Ezrin N-ERMAD (N-terminal ERM domain, FERM domain, Met1-Lys296) (human) (UniProt P15311)
Assay: other fluorescence titration; steady-state tryptophan fluorescence; 2 μM ezrin construct titrated with S100 protein; 20 mM HEPES pH 7.5, 150 mM NaCl, 0.5 mM TCEP, 1 mM CaCl2; 25°C; quadratic binding equation; both purified

By UniProt entry, the sequences of proteins in these tests, tags left out.
UniProt P29034: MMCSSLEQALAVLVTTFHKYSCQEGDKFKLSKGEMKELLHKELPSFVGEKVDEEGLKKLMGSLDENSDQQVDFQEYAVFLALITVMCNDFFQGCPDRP

binding: binds weakly
Substance: S100A2 (from UniProt P29034 1-98)
